# In patent publication US20120309704A1, “COMPOSITIONS FOR TREATMENT OF CHEMORESISTANT AND/OR POTENTIALLY CHEMORESISTANT LEUKAEMIAS” (priority 2009, published 2012):
# What was measured:
# [1] = test system: AML cell lines and primary samples; conditions: administration of hERG1 blockers; cited from earlier work
# 697 cells = experiment: Annexin V/propidium iodide apoptosis of 697 cells cultured in the absence or presence of marrow stromal cells (MSC); assay type: cell-based, human
smiles,measurement,setting,value
"Cc1cccc(CCN2CCC(C(=O)c3ccc(NS(C)(=O)=O)cc3)CC2)n1.Cl.Cl [E4031, N-[4-[[1-[2-(6-Methyl-2-pyridyl)ethyl]-4-piperidinyl]carbonyl]phenyl]metanesolfonammide dihydrochloride]",cellular growth,[1],impairs cellular growth
same,protective effect exerted by the stroma against doxorubicin in the presence of the hERG1 inhibitor,"697 cells; 697 cells + MSC + doxorubicin 0.1 μg/ml, E4031 20 μM, erythromycin 100 μM, sertindole 1 μM, 48 hours",reverted
same,pro-apoptotic effect of the hERG1 inhibitor alone,"697 cells; 697 cells, E4031 alone",has a pro-apoptotic effect
same,pro-apoptotic effect of the hERG1 inhibitor in combination with doxorubicin,"697 cells; 697 cells, combination with doxorubicin",strongly strengthened
